Over roughly 33,000 sequences, “E-score (-0.5 to 0.5)” has its median near -0.0014; the highest 2% begin near 0.25. This is one part of the list.
Target: T1, Cad1 (UniProt P24813)
T1 sequence: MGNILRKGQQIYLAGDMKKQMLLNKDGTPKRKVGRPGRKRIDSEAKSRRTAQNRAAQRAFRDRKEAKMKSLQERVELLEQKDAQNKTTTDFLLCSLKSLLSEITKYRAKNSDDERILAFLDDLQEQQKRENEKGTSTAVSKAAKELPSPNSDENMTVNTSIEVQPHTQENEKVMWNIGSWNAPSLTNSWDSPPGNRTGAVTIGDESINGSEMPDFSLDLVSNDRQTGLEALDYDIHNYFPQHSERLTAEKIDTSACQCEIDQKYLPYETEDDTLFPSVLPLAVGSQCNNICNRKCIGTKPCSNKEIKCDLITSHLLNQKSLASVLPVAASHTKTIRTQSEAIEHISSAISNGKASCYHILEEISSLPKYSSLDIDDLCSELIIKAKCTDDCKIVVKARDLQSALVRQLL
Assay: PBM E-score (8-mer binding enrichment) (E-score (-0.5 to 0.5)); higher = stronger / more preferred TF binding
Conditions: protein concentration: 100 nM; construct: GST-full length
Procedure, shortened: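 GST-tagged yeast TFs (full-length or DNA-binding domain) were made by PURExpress in vitro transcription/translation and applied at about 100-200 nM to universal all-10-mer Agilent arrays. The arrays were made double-stranded by primer extension, on fresh or once-stripped slides. Bound protein was detected with fluorescent anti-GST, and scans were normalised with masliner. Each ungapped eight-base word, pooled with its reverse complement, received an E-score (modified Wilcoxon-Mann-Whitney statistic) from the Universal PBM Analysis Suite.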

Sequence	PBM E-score
CGTTACTA	0.0425
CCGGAGGC	-0.2
CTCTCACA	0.0689
AGTCACGA	0.0372
ATTCCTAC	0.0998
AAGTCAAT	-0.0231
ATTATCCG	0.139
GTGTGCCA	-0.131
CTGTGAGA	-0.11
AAGCGCTC	0.0197
AAGACCGA	-0.0676
AGCGCTAT	0.278
AGAACTCG	0.00613
CAGGTTTC	0.111
CCGGGTTA	-0.0609
CGTTCTGA	-0.16
GCAGTTCA	0.0882
ATTATCGG	0.0117
GGGAGTCA	-0.0614
ACCCCGGG	-0.111
GCTCCATA	-0.0238
CGTGCTCC	-0.112
CTGCAAGA	0.0739
ATAACCAT	0.00076
ACCCCATG	-0.141

Sequence	PBM E-score
GACAGAAC	0.2
GACTGACA	0.0438
GACTCTCC	-0.175
AAATCCGT	0.0225
TTCCGGAA	0.316
CAAAGAAA	0.0436
CTACCGGC	-0.058
ACCTTGCG	0.0443
AGAGTCCA	-0.06
ATTCGGTG	0.0535
AAGCTACT	0.133
AAAGTTAG	0.107
ATGTCGCC	-0.131
CATACCAG	-0.0533
GCTGGTTA	0.0516
ATATGAAG	-0.0301
ATGTGCAA	0.00609
CACTAGCC	-0.0631
CACAAAAA	0.186
AACCGCCT	-0.0343
ACGATTAT	0.135
AGCAGGTG	0.0922
GCGCCCCA	0.00354
AACAGCTC	-0.0355
TAAGTAAA	0.118

Sequence	PBM E-score
AGGAAATG	0.0772
ATTTTGAG	0.0399
CGGTCACC	-0.165
AGCGGGCA	-0.281
CAGTTGCG	0.124
AAGCTAAA	-0.0688
ACAGTTTG	0.0317
CCGTACAA	0.0547
CGAGCCAG	0.0263
AATCCACC	-0.0222
ACACTGGT	-0.0108
ATAACGTG	0.0667
ACTGTACG	-0.0253
AGCCTATC	0.028
CAAGCCAG	-0.0467
CAAATGGA	0.0716
ACTTCGTA	-0.0581
AGCGTCAG	0.0724
CCTGATGA	0.0887
AAGAATCG	0.176
GACAACGC	0.0253
ACTTACCC	0.0598
GGGGATGA	-0.094
CCCACACA	0.00769
ACGACCTG	-0.216

As entered above:
PBM E-score, CGGTCACC reads -0.165
PBM E-score, ACTTCGTA reads -0.0581
PBM E-score, ATAACGTG reads 0.0667
PBM E-score, CCTGATGA reads 0.0887
PBM E-score, CCCACACA reads 0.00769
PBM E-score, ACGACCTG reads -0.216
PBM E-score, CAAGCCAG reads -0.0467

More entries.

Sequence	PBM E-score
AAGTGAGC	-0.0644
TAAGCCGA	0.181
ACTACCTC	0.00569
GTAAGCTA	0.298
ATAAACCC	0.0626
CAAACAAC	0.185
ACTTCTGA	-0.00477
ACCTACCG	-0.0813
CGCTGAAG	0.0981
CCGTTGCA	-0.0118
ACGTGCAG	-0.114
GTTATGAA	0.0492
CAATTGAA	-0.0146
CTGGATGC	-0.195
AACTCCTT	-0.168
GAGTCATC	0.127
ATGAAGGA	0.0663
ACCTCGCG	0.136
CTCTTTGA	-0.168
ATCAATTG	0.186
GCCACCCA	-0.126
ACTGGCCG	-0.244
AGGATGTA	0.0477
GAAAAATC	0.131
GACGTTTA	0.0281

Sequence	PBM E-score
CTGTCTAC	0.0091
AACTCACC	-0.0279
ACAATCTC	-0.0192
ATAGAAGC	0.119
CGTAGAAC	-0.171
GTTTGAGA	-0.0355
TAAGCAAA	0.18
CAGTACCG	-0.126
GCAACGGA	0.203
CGCGATGC	-0.0576
CAGGACGC	-0.0192
TGTGTCAA	-0.0431
CAAATATA	-0.0118
CTTCTCCA	-0.191
CATATCGG	-0.106
AGGGTCCG	-0.306
ACAGGTGA	-0.184
AGTTCCCA	0.181
GCCCGCGA	0.0255
CAGGGGGC	-0.397
AGCGGTAG	-0.224
CCGCGTTC	0.146
GACGATGA	-0.0492
GTCCTGGA	-0.0364
AAAATCGG	0.0568

Sequence	PBM E-score
ACCTGTAT	-0.048
AATTCGAG	0.062
GCACCGAA	0.143
CACTCAGC	0.012
CCATTTAA	0.0115
ATCCTTGG	0.0374
AGAAAAAA	0.0837
GGATTCGA	-0.148
AAGTTGAG	0.0317
AAGACTGT	-0.0728
ACTTCTCG	0.0748
AACTCGTC	-0.0198
CAGGTCGA	0.0664
ACGAAACC	0.202
AATTGCAC	0.0357
AGTTCCAA	0.0339
GTAAGACA	0.0626
TATTTAAA	0.117
AATACCCA	0.0624
AAACAAGG	-0.015
GGGACCGA	-0.0725
GGTATTAC	0.186
CGTACTGC	-0.117
AGTCTAGG	-0.197
CATTGGGG	-0.247

Sequence	PBM E-score
CAGGGTTC	0.024
ATCCATTC	0.131
AAAGCGAA	-0.0101
AAGTGATG	-0.0174
AGTGTTGA	0.101
AGGGGCAA	-0.125
AGAAAGAC	0.016
GAAATGCC	-0.15
GATTTCGA	-0.0223
CAGAACAG	-0.00393
ACTAAGAG	-0.0753
AGTAATAA	0.132
AGCGGTGA	-0.0991
AGGCCGTA	0.131
CGCATGCA	0.154
AGGGGGTC	-0.445
ATGGCCTA	-0.0975
ATTAACGG	0.139
GTTGAGAA	0.0176
GACGTGCC	-0.162
TCCCTGCA	0.043
GTACTGCA	-0.0315
